Data taken from US20040052828A1, “Consumable product including consumable component and alpha-keto enamine derivatives” (priority 2000, published 2004).

What was measured:
Assay type in all cases: in vivo, human
[1] = system: trained panelists; test: Nasal odor threshold and odor quality in water, triangle test by trained panelists; details: for Odor quality: in water; for Odor threshold: nasal odor threshold determined in water, triangle test
Procedure: (§1) Prior to sensory analysis, the purity of the synthetic taste compounds was checked by GC/MS. Determination of the cooling, as well as the aroma threshold, of the compounds was performed by trained panelists. Nasal odor thresholds (Guth, H.; Grosch, W. J. Am. Oil Chem. Soc. 1993, 70, 513-518), as well as cooling thresholds, were determined by triangle tests using tap water as the solvent. The samples were presented in order of increasing concentrations and the threshold values evaluated in three separate sessions were averaged. The values between individuals and separate sessions differed by not more than one dilution step.

[2] = system: trained panelists; test: Cooling threshold in water, triangle test by trained panelists; details: ratio of cooling threshold to odor threshold
Procedure: as §1

[3] = Tasting of cooling compounds in Vittel mineral water
Procedure: Solutions of 10%-menthol, 10% 5-MPC and 10% MPF, respectively, in ethanol were diluted with Vittel™ mineral water. The solutions were tasted and compared with pure Vittel™ water.

[4] = system: mouth cavity; test: Evaluation of cooling substances in orange juice
Procedure: Several cooling substances were evaluated in orange juice.

[5] = system: mouth; test: Taste testing of sugar confectionery (candies)
Procedure: Sugar (100 g) was heated together with water (15 g) in a beaker on a hot plate. After the mixture became a clear solution, the sugar syrup was heated further until it became viscous due to the evaporation of water. Then 5-MPC (20 mg) and MPF (100 mg), respectively, were added. The viscous liquid was then poured into molds (3 g each) and cooled down to room temperature. The candies, which had been formed in the molds, were demolded and used for taste testing.

Row | SMILES | Odor quality [1] | Odor threshold [1] [mg/kg] | Ratio (Cool/Odor) [2] | other results
1 | CC1CCC(C(C)C)C(O)C1 (single isomer, unassigned; (-)) [(−)-Menthol, reference compound] | mint-like | 0.1 to 0.2 | 9.5 | Flavor: odor/aroma ([3]; 10 mg/L in Vittel mineral water): mint-like odor; aroma ([4]; 20 mg/L in orange juice): strong mint-like aroma
2 | CC1=C(N2CCCC2)C(=O)OC1C (stereo not shown) [2(5H)-DMPF, 4,5-Dimethyl-3-(1-pyrrolidinyl)-2(5H)-furanone] | faintly mint- | 32 to 64 | 0.06 | 
3 | CC1=C(N2CCCC2)C(=O)OC1 [2(5H)-MPF, 4-Methyl-3-(1-pyrrolidinyl)-2(5H)-furanone] | odorless |  | <<0.01 | 
4 | CC1=C(N2CCCC2)C(=O)CC1C (stereo not shown) [3,4-DMPC, 3,4-Dimethyl-2-(1-pyrrolidinyl)-2-cyclopenten-1-one] | rubber-like | 26 to 43 | 2.0 | 
5 | CC1=C(N2CCCC2)C(=O)C(C)C1 (stereo not shown) [3,5-DMPC, 3,5-Dimethyl-2-(1-pyrrolidinyl)-2-cyclopenten-1-one] | rubber-like | 16 to 27 | 2.0 | 
6 | CC1=C(N2CCCC2)C(=O)CC1 [3-MPC, 3-Methyl-2-(1-pyrrolidinyl)-2-cyclopenten-1-one] | faintly | 44 to 73 | 0.8 | 
7 | CC1=C(N2CCCC2)C(=O)CCC1 [3-MPCH, 3-Methyl-2-(1-pyrrolidinyl)-2-cyclohexen-1-one] | faintly mint- | 45 to 75 | 2.0 | 
8 | CC1=C(N2CCCCC2)C(=O)CC1 [3-MPipC, 3-Methyl-2-(1-piperidinyl)-2-cyclopenten-1-one] | faintly | 80 to 120 | 0.8 | 
9 | CC1=C(N2CCCC2C(=O)O)C(=O)CC1 (stereo not shown) [3-MProC, 3-Methyl-2-(2-carboxy-1-pyrrolidinyl)-2-cyclopentene-1-one] | odorless |  | <<0.01 | 
10 | CC1C=C(N2CCCC2)C(=O)C1C (stereo not shown) [4,5-DMPC, 4,5-Dimethyl-2-(1-pyrrolidinyl)-2-cyclopenten-1-one] | faintly mint- | 136 to 226 | 0.5 | 
11 | CCC1CC=C(N2CCCC2)C1=O (stereo not shown) [5-EPC, 5-Ethyl-2-(1-pyrrolidinyl)-2-cyclopenten-1-one] | faintly mint- | 13 to 22 | 2.0 | 
12 | COC(=O)C1CCCN1C1=CCC(C)C1=O (stereo not shown) [5-MMeproC, 5-Methyl-2-(2-methoxycarbonyl-1-pyrrolidinyl)-2-cyclopentene-1-one] | odorless |  | <<0.01 | 
13 | CC1CC=C(N2CCCC2)C1=O (stereo not shown) [5-MPC, 5-Methyl-2-(1-pyrrolidinyl)-2-cyclopenten-1-one] | faintly mint- | 2.6 to 5.2 | 1.7 | Flavor: odor/aroma ([3]; 100 mg/L in Vittel mineral water): slight mint-like odor; additional flavour quality ([5]; 20 mg added to syrup of 100 g sugar): slightly oily and mint-like; aroma ([4]; 200 mg/L in orange juice): weak mint-like herbal aroma note
14 | CCN(CC)C1=CCC(C)C1=O (stereo not shown) [5-MdeaC, 5-Methyl-2-diethylamino-2-cyclopenten-1-one] | curcuma-like | 6.0 to 9.0 | 2.1 | 
15 | CC1CC=C(N2CCCCC2)C1=O (stereo not shown) [5-MpipC, 5-Methyl-2-(1-piperidinyl)-2-cyclopenten-1-one] | faintly mint- | 12 to 20 | 2.7 | 
16 | CC1CCC=C(N2CCCC2)C1=O (stereo not shown) [6-MPCH, 6-Methyl-2-(1-pyrrolidinyl)-2-cyclohexen-1-one] | rubber-like | 3.4 to 5.6 | 8.0 | 
17 | CC1=C(N2CCCC2)C(=O)C(C)O1 (stereo not shown) [DMPF, 2,5-Dimethyl-4-(1-pyrrolidinyl)-3(2H)-furanone] | nutty, roasty | 30 to 60 | 2.7 | 
18 | CC1=C(N2CCCC2)C(=O)CO1 [MPF, 5-Methyl-4-(1-pyrrolidinyl)-3(2H)-furanone] | odorless |  | <<0.01 | Flavor: odor/aroma ([3]; 400 mg/L in Vittel mineral water): neutral; additional flavour quality ([5]; 100 mg added to syrup of 100 g sugar): no additional flavour quality; aroma ([4]; 1000 mg/L in orange juice): without any additional aroma sensation
